No constants are given. Whether binding was seen depends on the method and setting. For some assays here: Binding seen in cells or lysates may run through a third protein. Some entries that bind do so weakly or less than the wild type. Where a sequence is shown, tags or fusion partners need not be part of it.
T1: GST-GADD45B (UniProt P22339)
T1 sequence: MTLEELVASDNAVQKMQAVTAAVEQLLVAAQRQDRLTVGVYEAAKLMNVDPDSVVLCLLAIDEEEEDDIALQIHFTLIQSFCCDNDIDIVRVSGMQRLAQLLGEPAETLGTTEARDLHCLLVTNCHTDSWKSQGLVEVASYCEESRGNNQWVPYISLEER

T2: GST-CAR (UniProt O35627)
T2 sequence: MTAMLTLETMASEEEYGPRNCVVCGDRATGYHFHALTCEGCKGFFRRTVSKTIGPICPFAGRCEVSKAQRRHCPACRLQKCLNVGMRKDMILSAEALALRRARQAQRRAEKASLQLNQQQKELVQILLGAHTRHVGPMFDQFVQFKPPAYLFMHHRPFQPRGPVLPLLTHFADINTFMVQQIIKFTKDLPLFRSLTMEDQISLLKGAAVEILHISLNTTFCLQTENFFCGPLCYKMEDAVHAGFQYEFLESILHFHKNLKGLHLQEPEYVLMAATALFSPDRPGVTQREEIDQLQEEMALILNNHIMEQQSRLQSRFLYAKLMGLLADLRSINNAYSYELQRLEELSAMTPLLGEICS


Columns and labels:
[1] = molecular target: T1, GST-GADD45B; test: pull-down; purified GST-GADD45B incubated with in vitro translated [35S]methionine-labeled MKK7 and/or CAR; bound proteins detected by autoradiography after SDS-PAGE; only the target purified
[2] = molecular target: T2, GST-CAR; test: pull-down; purified GST-CAR and GST-CAR mutants incubated with purified GADD45B (GST removed by thrombin); Western blot with anti-GADD45B (N-19) antibody; both purified

Row | Binder | binding [1] | binding [2]
1 | in vitro translated CAR (receptor, UniProt O35627 1-358, labeled with [35S] methionine) MTAMLTLETMASEEEYGPRNCVVCGDRATGYHFHALTCEGCKGFFRRTVSKTIGPICPFAGRCEVSKAQRRHCPACRLQKCLNVGMRKDMILSAEALALRRARQAQRRAEKASLQLNQQQKELVQILLGAHTRHVGPMFDQFVQFKPPAYLFMHHRPFQPRGPVLPLLTHFADINTFMVQQIIKFTKDLPLFRSLTMEDQISLLKGAAVEILHISLNTTFCLQTENFFCGPLCYKMEDAVHAGFQYEFLESILHFHKNLKGLHLQEPEYVLMAATALFSPDRPGVTQREEIDQLQEEMALILNNHIMEQQSRLQSRFLYAKLMGLLADLRSINNAYSYELQRLEELSAMTPLLGEICS | binds | 
2 | purified GADD45B protein (protein, UniProt P22339 1-160) MTLEELVASDNAVQKMQAVTAAVEQLLVAAQRQDRLTVGVYEAAKLMNVDPDSVVLCLLAIDEEEEDDIALQIHFTLIQSFCCDNDIDIVRVSGMQRLAQLLGEPAETLGTTEARDLHCLLVTNCHTDSWKSQGLVEVASYCEESRGNNQWVPYISLEER |  | binds
